Measurements reported in PubChem BioAssay AID1259308 (NCATS, 2017)
Purpose: 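Candidate targets for better recombinant protein yield in mammalian cells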 (primary screen). System: human HEK293 embryonic kidney cells stably expressing firefly luciferase (HEK-CMV-Luc2-Hygro). Reagents: single siRNA against human genes, 0.8 pmol siRNA per well. Time to read-out: 72 h. Detection: 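Reporter luminescence and viable-cell signal on separate replicate plates, given as percent of non-targeting control and median/MAD z-scores, plus per-cell luciferase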. Scale: total luciferase, z-score and total luciferase, % of control: higher = more reporter protein produced; luciferase per cell, z-score: higher = more reporter output per viable cell; viable cells, % of control: higher = more viable cells. Call rule: 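Active when the median/MAD z-score for overall luciferase is greater than 3; a gene was taken forward for validation with new siRNAs if at least two of its three siRNAs passed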. Meaning of the calls: active = raised luciferase; inactive = no rise.
Shown is an unselected part of about 59,000 reagents tested. Of all reagents, about 1,510 (2.6%) got an active call. 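Calls use total luciferase alone and ignore viability, so some active siRNAs may act by altering cell number.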 Unmarked entries are inactive. The numbers tell different reagents against one gene apart.

| gene | reagent no. | total luciferase, z-score | total luciferase, % of control | luciferase per cell, z-score | viable cells, % of control |
| --- | --- | --- | --- | --- | --- |
| VAT1L (vesicle amine transport 1 like) | 1 | -2.03 | 41.6 | -1.7 | 72.7 |
| VAT1L (vesicle amine transport 1 like) | 2 | -0.748 | 67 | 0.167 | 71.7 |
| VAT1L (vesicle amine transport 1 like) | 3 | 0.302 | 87.9 | -0.757 | 120 |
| ARHGAP5 (Rho GTPase activating protein 5) | 1 | -0.18 | 78.3 | -0.895 | 111 |
| ARHGAP5 (Rho GTPase activating protein 5) | 2 | 0.0241 | 82.4 | -0.799 | 114 |
| ARHGAP5 (Rho GTPase activating protein 5) | 3 | 0.357 | 89 | 0.373 | 90.1 |
| OR9A2 (olfactory receptor family 9 subfamily A member 2) | 1 | 0.553 | 92.9 | 0.0354 | 103 |
| OR9A2 (olfactory receptor family 9 subfamily A member 2) | 2 | 0.157 | 85 | -0.265 | 102 |
| OR9A2 (olfactory receptor family 9 subfamily A member 2) | 3 | 0.505 | 91.9 | 0.499 | 90.1 |
| RANBP3L (RAN binding protein 3 like) | 1 | -0.783 | 66.3 | -0.705 | 89.2 |
| RANBP3L (RAN binding protein 3 like) | 2 | 0.259 | 87 | 0.159 | 93.3 |
| RANBP3L (RAN binding protein 3 like) | 3 | -0.315 | 75.6 | -0.878 | 106 |
| TMEM41A (transmembrane protein 41A) | 1 | 1.32 | 108 | 0.735 | 99.6 |
| TMEM41A (transmembrane protein 41A) | 2 | 0.431 | 90.5 | -0.293 | 109 |
| TMEM41A (transmembrane protein 41A) | 3 | 1.08 | 103 | 0.646 | 97.5 |
| LOC729187 (retired record) | 1 | -1.6 | 50.1 | -2.06 | 96.2 |
| LOC729187 (retired record) | 2 | -0.0136 | 81.6 | -0.298 | 98.7 |
| LOC729187 (retired record) | 3 | 0.762 | 97 | 0.178 | 103 |
| WDR59 (WD repeat domain 59) | 1 | 0.844 | 98.7 | 1.96 | 65.8 |
| WDR59 (WD repeat domain 59) | 2 | -1.12 | 59.6 | -0.868 | 83.7 |
| WDR59 (WD repeat domain 59) | 3 | -0.646 | 69 | 0.127 | 74.6 |
| A4GNT (alpha-1,4-N-acetylglucosaminyltransferase) | 1 | -1.24 | 57.1 | -1.43 | 93 |
| A4GNT (alpha-1,4-N-acetylglucosaminyltransferase) | 2 | -0.748 | 67 | -0.616 | 88.1 |
| A4GNT (alpha-1,4-N-acetylglucosaminyltransferase) | 3 | -0.642 | 69.1 | -0.634 | 91.2 |
| HGD (homogentisate 1,2-dioxygenase) | 1 | 2.37 | 129 | 2.61 | 72.5 |
| HGD (homogentisate 1,2-dioxygenase) | 2 | 0.361 | 89.1 | -0.0388 | 101 |
| HGD (homogentisate 1,2-dioxygenase) | 3 | 0.0298 | 82.5 | -0.307 | 99.9 |
| CCL3 (C-C motif chemokine ligand 3) | 1 | -0.914 | 63.7 | -0.208 | 75.2 |
| CCL3 (C-C motif chemokine ligand 3) | 2 | 0.553 | 92.9 | -0.256 | 111 |
| CCL3 (C-C motif chemokine ligand 3) | 3 | -0.0332 | 81.2 | -0.322 | 98.8 |

12 successive entries already listed, for reference:
| gene | reagent no. | total luciferase, z-score | total luciferase, % of control | luciferase per cell, z-score | viable cells, % of control |
| --- | --- | --- | --- | --- | --- |
| TMEM41A (transmembrane protein 41A) | 3 | 1.08 | 103 | 0.646 | 97.5 |
| LOC729187 (retired record) | 1 | -1.6 | 50.1 | -2.06 | 96.2 |
| LOC729187 (retired record) | 2 | -0.0136 | 81.6 | -0.298 | 98.7 |
| LOC729187 (retired record) | 3 | 0.762 | 97 | 0.178 | 103 |
| WDR59 (WD repeat domain 59) | 1 | 0.844 | 98.7 | 1.96 | 65.8 |
| WDR59 (WD repeat domain 59) | 2 | -1.12 | 59.6 | -0.868 | 83.7 |
| WDR59 (WD repeat domain 59) | 3 | -0.646 | 69 | 0.127 | 74.6 |
| A4GNT (alpha-1,4-N-acetylglucosaminyltransferase) | 1 | -1.24 | 57.1 | -1.43 | 93 |
| A4GNT (alpha-1,4-N-acetylglucosaminyltransferase) | 2 | -0.748 | 67 | -0.616 | 88.1 |
| A4GNT (alpha-1,4-N-acetylglucosaminyltransferase) | 3 | -0.642 | 69.1 | -0.634 | 91.2 |
| HGD (homogentisate 1,2-dioxygenase) | 1 | 2.37 | 129 | 2.61 | 72.5 |
| HGD (homogentisate 1,2-dioxygenase) | 2 | 0.361 | 89.1 | -0.0388 | 101 |

The results go on:
| gene | reagent no. | total luciferase, z-score | total luciferase, % of control | luciferase per cell, z-score | viable cells, % of control |
| --- | --- | --- | --- | --- | --- |
| CAMK2G (calcium/calmodulin dependent protein kinase II gamma) | 1 | -0.891 | 64.2 | -1.13 | 96.5 |
| CAMK2G (calcium/calmodulin dependent protein kinase II gamma) | 2 | -1.96 | 42.8 | -0.876 | 60.3 |
| CAMK2G (calcium/calmodulin dependent protein kinase II gamma) | 3 | -0.545 | 71 | -0.662 | 94.5 |
| SURF4 (surfeit 4) | 1 | 0.279 | 87.4 | 1.59 | 64.2 |
| SURF4 (surfeit 4) | 2 | -0.361 | 74.7 | -0.598 | 97.7 |
| SURF4 (surfeit 4) | 3 | -1.19 | 58.2 | -1.15 | 88.2 |
| PKD1L1 | 1 | 0.271 | 87.3 | 0.149 | 93.8 |
| PKD1L1 | 2 | 1.81 | 118 | 1.15 | 97.3 |
| PKD1L1 | 3 | 1.66 | 115 | 1.92 | 77.4 |
| IFFO1 (intermediate filament family orphan 1) | 1 | 2.48 | 131 | 1.62 | 95.8 |
| IFFO1 (intermediate filament family orphan 1) | 2 | -0.721 | 67.5 | -0.706 | 90.9 |
| IFFO1 (intermediate filament family orphan 1) | 3 | 1.92 | 120 | 1.2 | 97.9 |
| ZNF425 (zinc finger protein 425) | 1 | -0.347 | 75 | -0.0953 | 85.9 |
| ZNF425 (zinc finger protein 425) | 2 | 1.51 | 112 | 1.33 | 88.2 |
| ZNF425 (zinc finger protein 425) | 3 | 1.58 | 113 | 1.5 | 85.3 |
| PKP1 (plakophilin 1) | 1 | -2.27 | 36.7 | -1.72 | 64.5 |
| PKP1 (plakophilin 1) | 2 | -2.23 | 37.6 | -2.83 | 88.3 |
| PKP1 (plakophilin 1) | 3 | 1.57 | 113 | 1.16 | 93.1 |
| BASP1 (brain abundant membrane attached signal protein 1) | 1 | -0.75 | 67 | -0.829 | 93.1 |
| BASP1 (brain abundant membrane attached signal protein 1) | 2 | -0.109 | 79.7 | -0.0953 | 91.3 |
| BASP1 (brain abundant membrane attached signal protein 1) | 3 | 0.307 | 88 | 0.161 | 94.3 |
| TIAM2 (TIAM Rac1 associated GEF 2) | 1 | 0.508 | 92 | 0.324 | 94.4 |
| TIAM2 (TIAM Rac1 associated GEF 2) | 2 | -1.84 | 45.4 | -1.68 | 79 |
| TIAM2 (TIAM Rac1 associated GEF 2) | 3 | 1.73 | 116 | 1.64 | 84.4 |
| DMRT1 (doublesex and mab-3 related transcription factor 1) | 1 | -0.0948 | 80 | -0.295 | 96.6 |
| DMRT1 (doublesex and mab-3 related transcription factor 1) | 2 | -0.718 | 67.6 | -0.843 | 94.3 |
| DMRT1 (doublesex and mab-3 related transcription factor 1) | 3 | 1.49 | 112 | 0.849 | 99.7 |
| TMEM98 (transmembrane protein 98) | 1 | -0.368 | 74.6 | 0.0586 | 82 |
| TMEM98 (transmembrane protein 98) | 2 | -0.707 | 67.8 | -0.893 | 95.9 |
| TMEM98 (transmembrane protein 98) | 3 | 0.133 | 84.5 | 0.11 | 91.8 |
| NDE1 (nudE neurodevelopment protein 1) | 1 | 1.45 | 111 | 1.1 | 92.6 |
| NDE1 (nudE neurodevelopment protein 1) | 2 | 1.51 | 112 | 1.32 | 88.4 |
| NDE1 (nudE neurodevelopment protein 1) | 3 | 0.0959 | 83.8 | 0.082 | 91.6 |
| UQCC1 (ubiquinol-cytochrome c reductase complex assembly factor 1) | 1 | 0.284 | 87.5 | 0.378 | 88.6 |
| UQCC1 (ubiquinol-cytochrome c reductase complex assembly factor 1) | 2 | 0.573 | 93.3 | 0.363 | 94.7 |
| UQCC1 (ubiquinol-cytochrome c reductase complex assembly factor 1) | 3 | -1.18 | 58.5 | -0.938 | 83.7 |
| HMGB1 (high mobility group box 1) | 1 | 1.59 | 113 | 0.662 | 106 |
| HMGB1 (high mobility group box 1) | 2 | 0.459 | 91 | -0.388 | 113 |
| HMGB1 (high mobility group box 1) | 3 | 0.357 | 89 | 0.171 | 95.1 |
| CAND1 (cullin associated and neddylation dissociated 1) | 1 | -0.0823 | 80.2 | -0.337 | 98 |
| CAND1 (cullin associated and neddylation dissociated 1) | 2 | 0.813 | 98.1 | 1.66 | 70.9 |
| CAND1 (cullin associated and neddylation dissociated 1) | 3 | -0.59 | 70.2 | -0.462 | 88.5 |
| SUMO4 (small ubiquitin like modifier 4) | 1 | 2.16 | 125 | 1.59 | 91.7 |
| SUMO4 (small ubiquitin like modifier 4) | 2 | -0.41 | 73.7 | -0.338 | 90.1 |
| SUMO4 (small ubiquitin like modifier 4) | 3 | -0.185 | 78.2 | 0.0519 | 86.2 |
